Molecules are shown by their SMILES. The whole screen tested about 2,400 compounds, of which about 20 (0.8%) were called active.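 The calls were made as follows: active = AC50 no more than ten times the highest tested concentration, or full inhibition at every dose giving a flat fit (cut at about 30 µM in these data); inconclusive = flat fit with activity between 30% and 70%, or poor-quality invalid fit; inactive = AC50 more than ten times the top tested dose.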 Some of the results follow.

Here are results for 98 compounds from PubChem BioAssay AID463205 (Broad Institute, 2010).

This assay can be described thus: inhibitors of ADP-Glo detection reagents, dose response, artefact control for GSK-3a inhibitor project, biochemical, luminescence, cell-free, homogeneous (AID 463205).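 Also: kinase-free counter-screen against the ADP-Glo detection reagents only; potency is for inhibitors that reduce the luminescence signal.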 The following applies: 5 uM ADP. (ADP-Glo turns the ADP formed in a reaction into a luminescent signal.)
Turning to `COc1cccc(-c2[nH]nc3c2C(c2ccc(C)o2)C(C#N)=C(N)O3)c1` (stereo not drawn), the AC50 was inactive: > 30 µM.

Take `COc1ccc(NC(=O)Nc2ccccc2F)c(C)c1`: the AC50 was inactive: > 30 µM. On to `COCCCNc1ncnc2sc3c(c12)CCC(C)C3` (stereo not drawn), for which the AC50 was inactive: > 30 µM.

With `Cc1ccnc(NC(=O)Cn2c(=O)oc3cc(S(=O)(=O)N4CCCC4)ccc32)c1`, the AC50 was inactive: > 30 µM. For `COc1ccc(CCNc2ncnc3[nH]ncc23)cc1OC`, the AC50 is inactive: > 30 µM.

As to `COc1cccc(C(=O)O/N=C(\N)c2ccccn2)c1`, the AC50 was active: 18.9 µM.

For the compound `CC(OC(=O)Cc1c[nH]c2ccccc12)C(=O)N(C)c1ccccc1` (stereo not drawn), the AC50 was inactive: > 30 µM. Take `Oc1cc(O)cc(-c2cc3ccc(O)cc3o2)c1`: the AC50 is inactive: > 30 µM.

As to `CC(=O)Nc1c(C)ccc2nsnc12`, the AC50 is inactive: > 30 µM.

In the case of `O=C(COc1ccccc1Cc1ccccc1)Nc1cccnc1`, the AC50 is inactive: > 30 µM.

With `O=C1CCCC2=C1C(c1ccc(O)cc1)c1c(ccc3ccccc13)N2` (stereo not drawn), the AC50 was inactive: > 30 µM.

For the compound `CC1CCN(Cc2c(O)ccc3c2O/C(=C\c2ccco2)C3=O)CC1`, the AC50 was inactive: > 30 µM. The figure for `COc1cc(/C=C2\Oc3ccc(C#Cc4ccc(O)cc4)cc3C2=O)cc(OC)c1` is inactive: > 30 µM; for `CCOC(=O)c1nnn(-c2ccc(OC)cc2)c1N` it is inactive: > 30 µM; for `O=C(Nc1ccccc1F)Nc1ccccc1OC(F)F` it is inactive: > 30 µM. The figure for `O=P(COCCOCP(=O)(c1ccccc1)c1ccccc1)(c1ccccc1)c1ccccc1` is inactive: > 30 µM; for `CCSc1nc2sc3c(c2c(=O)n1-c1ccccc1C)CCN(C)C3` it is inactive: > 30 µM; for `Cc1cc(NCc2ccco2)n2c(nc3ccccc32)c1C#N` it is inactive: > 30 µM. As to `Cc1ccc(N2CC(C(=O)Nc3ncc([N+](=O)[O-])s3)CC2=O)cc1` (stereo not drawn), the AC50 was inactive: > 30 µM. The same measure for `Fc1ccc(/C=N/Nc2nc3ccccc3[nH]2)cc1F`: inactive: > 30 µM. The same measure for `CSc1nc(SCCN(C)C)c2c3c(sc2n1)COC(C)(C)C3`: inactive: > 30 µM. The figure for `COc1ccc(CC(=S)N2CCOCC2)cc1` is inactive: > 30 µM.

Turning to `CCN(CC)CCCNc1ncnc2scc(-c3ccc(F)cc3)c12`, the AC50 was inactive: > 30 µM. As to `Cc1c2c(n3c(nc4ccccc43)c1C#N)N(CCN(C)C)CC2`, the AC50 is inactive: > 30 µM. The figure for `CC(C)CCNc1nc(N)c([N+](=O)[O-])c(N2CCCCCC2)n1` is inactive: > 30 µM. The figure for `CN(C)Cc1c(C(=O)N/N=C/C=C/c2ccccc2)nnn1-c1nonc1N` is inactive: > 30 µM; for `COc1cccc(C(=O)O/N=C(\N)c2ccccn2)c1OC` it is inactive: > 30 µM; for `Clc1ccccc1C1=Nn2c(nnc2-c2ccco2)SC1` it is inactive: > 30 µM. As to `Cc1ccc2c(c1)N(CCC(=O)NC(C)C)C(=O)CO2`, the AC50 was inactive: > 30 µM. The figure for `CC1CCc2c(sc(NC(=O)CCCn3cnc([N+](=O)[O-])n3)c2C(N)=O)C1` (stereo not drawn) is inactive: > 30 µM; for `O=C(CSCc1ccc([N+](=O)[O-])cc1)N/N=C/c1cccnc1` it is inactive: > 30 µM.

For `O=C(CSc1nnc(-c2ccc(O)cc2)o1)Nc1cccc(O)c1`, the AC50 is inactive: > 30 µM. The figure for `O=C(c1ccco1)N(Cc1ccc([N+](=O)[O-])cc1)c1ccc(Cl)cc1` is inactive: > 30 µM; for `CN(C)CCNc1c2c(c(C#N)c3nc4ccccc4n13)CCCC2` it is inactive: > 30 µM. The figure for `O=C(NCCCN1CCOCC1)c1cc(Cl)ccc1[N+](=O)[O-]` is inactive: > 30 µM; for `CN(Cc1nc2c(s1)CCCC2)C(=O)CCc1nnc(-c2ccccc2)o1` it is inactive: > 30 µM.

As to `CCOC(=O)c1nnn(-c2nonc2-n2cccc2)c1C`, the AC50 is inactive: > 30 µM. The same measure for `CCc1cc(C(=O)OC)c(NC(=O)CN2CCN(C(=O)c3ccco3)CC2)s1`: inactive: > 30 µM. Take `O=C(Nc1ccccc1-c1nnc(SCc2ccccc2Cl)o1)c1ccccc1`: the AC50 was inactive: > 30 µM. In the case of `Cc1ccc(S(=O)(=O)N2C(=O)/C(=C3\SC(=S)NC3=O)c3ccccc32)cc1`, the AC50 was inactive: > 30 µM. The same measure for `COCCCNc1nc(N)c([N+](=O)[O-])c(N2CCCCCC2)n1`: inactive: > 30 µM. For the compound `COc1cccc(CNc2nc(C(F)(F)F)nc3ccccc23)c1`, the AC50 is inactive: > 30 µM. The figure for `S=c1sc2ccccc2n1CCc1ccncc1` is inactive: > 30 µM; for `O=C1CNC(=S)N1CCCn1ccnc1` it is inactive: > 30 µM. The figure for `COC(=O)[C@@H]1[C@H](CCc2ccccc2)NC(=O)N(Cc2ccccc2)[C@@H]1C` is inactive: > 30 µM. The figure for `O=C(Nc1ncc([N+](=O)[O-])s1)C1CC(=O)N(c2ccc(F)cc2)C1` (stereo not drawn) is inactive: > 30 µM; for `CCc1ccc(C2CC(c3ccc(Cl)cc3)n3nc(N)nc3N2)cc1` (stereo not drawn) it is inactive: > 30 µM.

On to `CCSc1ccccc1C(=O)Nc1cccnc1`, for which the AC50 was inactive: > 30 µM. The same measure for `COc1ccccc1N1CC(C(=O)Nc2nc(C)cs2)CC1=O` (stereo not drawn): inactive: > 30 µM; for `CCOC(=O)CSc1nc(N)c(C#N)c(-c2cccs2)c1C#N`: inactive: > 30 µM; for `O=C(CSc1ccccc1)Nc1ccc2c(c1)C(=O)NC2=O`: inactive: > 30 µM. In the case of `O=c1oc2cc(O)ccc2c2ccccc12`, the AC50 was inactive: > 30 µM. For the compound `CCOc1ccc2nc(NC(=O)CSc3ccccc3)sc2c1`, the AC50 is inactive: > 30 µM. The figure for `Nc1nonc1-n1nnc(C(=O)N/N=C/c2cccc(Cl)c2)c1-c1cccs1` is inactive: > 30 µM; for `CC1CCC(C(C)C)C2=C1C(C#N)(C#N)C(C#N)(C#N)C(c1ccccc1)N2` (stereo not drawn) it is inactive: > 30 µM.

Take `O=[N+]([O-])c1c(NCCCO)cc(Sc2nc3ccccc3s2)c2nonc12`: the AC50 was inactive: > 30 µM. The figure for `CC(C(=O)Nc1cccc(Br)c1)c1ccc([N+](=O)[O-])cc1` (stereo not drawn) is inactive: > 30 µM; for `CCCC1=C(C(=O)OCC)C(c2ccc(F)cc2)n2ncnc2N1` (stereo not drawn) it is inactive: > 30 µM.

For `COc1ccc(-c2nc(N)nc(N)n2)c(O)c1`, the AC50 is inactive: > 30 µM. For the compound `Cc1nc(NCC2CCCO2)nc2c1C(=O)CC(C)(C)C2` (stereo not drawn), the AC50 was inactive: > 30 µM.

`C=CCn1cnc2c(c1=O)c1nc3ccccc3nc1n2/N=C/c1cc(OC)c(OC)c(OC)c1`: the AC50 was inactive: > 30 µM.

On to `CCCOc1cccc(-c2nnc(N)s2)c1`, for which the AC50 was inactive: > 30 µM. For `Cc1cccc(C)c1OCC(O)CNC(C)C` (stereo not drawn), the AC50 is inactive: > 30 µM. The same measure for `CCCCOc1cccc(-c2nnc(N)s2)c1`: inactive: > 30 µM; for `C/C(=N\NC(=O)c1nnn(-c2nonc2N)c1CN1CCCCCC1)c1ccc(Br)cc1`: inactive: > 30 µM; for `O=c1[nH]ncc2c3ccccc3n(Cc3ccccc3)c12`: inactive: > 30 µM. In the case of `CC(C)C(=O)Nc1ccc2c(c1)C(=O)NC2=O`, the AC50 is inactive: > 30 µM. Regarding `Cc1sc2nc(SCC(=O)Nc3ccc(S(=O)(=O)NCCCC(=O)O)cc3)[nH]c(=O)c2c1C`, the AC50 was inactive: > 30 µM.

On to `CC1=C(C(=O)OCc2ccccc2)C(c2cccc(Br)c2)NC(=O)N1` (stereo not drawn), for which the AC50 was inactive: > 30 µM. The figure for `Cc1ccc(N(CC(O)CN2CCCC2)S(=O)(=O)c2ccccc2)cc1` (stereo not drawn) is inactive: > 30 µM; for `CCOC(=O)c1cnn(C)c1NC(=O)c1ccc(Cl)cc1Cl` it is inactive: > 30 µM; for `N#Cc1c(N2CCCCC2)nc(N)c2c(N)nc(SCC(=O)O)cc12` it is inactive: > 30 µM. The same measure for `Cc1ccc(N(CC(O)CN2CCCCC2)S(=O)(=O)c2ccccc2)cc1` (stereo not drawn): inactive: > 30 µM; for `N#Cc1sc2nc3c(c(-c4ccco4)c2c1N)CCCC3`: inactive: > 30 µM. In the case of `CNC(=O)c1ccsc1NC(=O)C1CCCN1S(=O)(=O)c1cccs1` (stereo not drawn), the AC50 is inactive: > 30 µM. The figure for `O=C1NC(=Nc2ccccc2)S/C1=C/c1cccs1` is inactive: > 30 µM. Regarding `Nc1nc(Nc2ccc(Cl)cc2)n[nH]1`, the AC50 is inactive: > 30 µM. As for `Cc1c(CCC(=O)O)c(=O)oc2cc(O)ccc12`, the AC50 is inactive: > 30 µM. For `Cc1ccc(/C=C2\C(=O)Nc3ccccc32)o1`, the AC50 is inactive: > 30 µM.

As to `O=C(N/N=C/c1cccnc1)c1cc2c(ccc3ccccc32)o1`, the AC50 is inactive: > 30 µM. The figure for `O=C(CSc1nnc(-c2ccc(O)cc2)o1)Nc1ccccc1Br` is inactive: > 30 µM; for `CCOc1ccc(-c2ncncc2-c2ccc(OC)c(OC)c2)c(O)c1` it is inactive: > 30 µM; for `CCn1c(C)nc2cc(-c3nc4n(n3)Cc3ccccc3-4)ccc21` it is active: 24.3 µM.

In the case of `CCCCCCCCOC(=O)C1=C(C)Nc2nnnn2C1c1cccs1` (stereo not drawn), the AC50 was inactive: > 30 µM.

Turning to `O=c1cc[nH]c2ccc(OC(F)(F)F)cc12`, the AC50 was inactive: > 30 µM.

For the compound `COCCCNC(=O)C(=O)NC1CCCCCC1`, the AC50 is inactive: > 30 µM. The figure for `Fc1cccc(Nc2ncnc3sccc23)c1` is inactive: > 30 µM; for `Cc1ccc(S(=O)(=O)N2CCN(CC(=O)N/N=C\c3ccccn3)CC2)cc1` it is inactive: > 30 µM; for `Clc1ccc(-c2noc(COc3ccccc3)n2)cc1` it is inactive: > 30 µM. The figure for `CC(C)OC(=O)CSc1nc(N)c(C#N)c(-c2ccco2)c1C#N` is inactive: > 30 µM.

On to `COCCOC(=O)C1=C(C)Nc2ncnn2C1c1ccco1` (stereo not drawn), for which the AC50 was inactive: > 30 µM. For `O=C(NC(=S)NCC1COc2ccccc2O1)c1ccccc1` (stereo not drawn), the AC50 is inactive: > 30 µM. Take `CCOC(=O)c1cc(C)[nH]c1C`: the AC50 was inactive: > 30 µM. The figure for `Cc1ccc2c(c1)Oc1ccc(NC(=O)CCl)cc1C(=O)N2` is inactive: > 30 µM; for `O=C(Nc1nnc(-c2ccco2)s1)C1CCCCC1` it is inactive: > 30 µM; for `S=C(NCCC1=CCCCC1)Nc1ccccc1` it is inactive: > 30 µM. The figure for `CCOC(=O)c1nnn(-c2nonc2N)c1CN1CCCCCC1` is inactive: > 30 µM. The same measure for `Cc1cccc(OCC(=O)N2CCN(c3nnc(-c4ccccc4)c4ccccc34)CC2)c1`: inactive: > 30 µM.

Broadly, the AC50 is the concentration at which the activity in the assay is half-maximal.
